Results: US20220386609A1, “META-DIAMIDE INSECTICIDES” (FMC Corporation, priority 2019, published 2022)
Some results were stated once for a whole list of compounds, not compound by compound.

Key:
[1] = test system: diamondback moth (Plutella xylostella (L.)); assay: Test A: control of diamondback moth on mustard plant, foliar spray; format: in vivo; conditions: neonate larvae, 6 days, criterion is feeding damage bound and/or 100% mortality
[2] = test system: fall armyworm (Spodoptera frugiperda (J. E. Smith)); assay: Test B: control of fall armyworm on corn plant, foliar spray; format: in vivo; conditions: 1-day-old larvae, 6 days, criterion is feeding damage bound and/or 100% mortality

Measured: control efficacy: feeding damage (40% or less feeding damage and/or 100% mortality)

O=C(CC(c1ccc(Cl)c(Cl)c1)C(F)(F)F)Nc1ccc(Cl)c(C(=O)NC2CC2)c1 (stereo not shown) [Compound 20]
≤ 40%: [1]; tested at 50 ppm | [1]; tested at 250 ppm | [2]; tested at 50 ppm | [2]; tested at 250 ppm

O=C(CC(c1cccc(C(F)(F)F)c1)C(F)(F)F)Nc1ccc(F)c(C(=O)Nc2ccc(F)cn2)c1F (stereo not shown) [Compound 25]
≤ 40%: [1]; tested at 10 ppm | [1]; tested at 50 ppm | [1]; tested at 250 ppm | [2]; tested at 50 ppm | [2]; tested at 250 ppm

O=C(CC(c1cc(F)cc(Cl)c1)C(F)(F)F)Nc1ccc(Cl)c(C(=O)Nc2ccc(C(F)(F)F)cn2)c1 (stereo not shown) [Compound 27]
≤ 40%: [1]; tested at 50 ppm | [1]; tested at 250 ppm | [2]; tested at 50 ppm | [2]; tested at 250 ppm

O=C(CC(c1cc(Cl)cc(Cl)c1)C(F)(F)F)Nc1ccc(Cl)c(C(=O)Nc2ccc(C(F)(F)F)cc2)c1 (stereo not shown) [Compound 34]
≤ 40%: [1]; tested at 50 ppm | [1]; tested at 250 ppm | [2]; tested at 250 ppm

O=C(CC(c1ccc(Cl)c(Cl)c1)C(F)(F)F)Nc1ccc(Cl)c(C(=O)Nc2cccc(F)c2)c1 (stereo not shown) [Compound 35]
≤ 40%: [1]; tested at 50 ppm | [1]; tested at 250 ppm | [2]; tested at 50 ppm | [2]; tested at 250 ppm

O=C(CC(c1cccc(C(F)(F)F)c1)C(F)(F)F)Nc1ccc(Cl)c(C(=O)Nc2cccc(F)c2)c1 (stereo not shown) [Compound 38]
≤ 40%: [1]; tested at 50 ppm | [1]; tested at 250 ppm | [2]; tested at 250 ppm

O=C(CC(c1cccc(C(F)(F)F)c1)C(F)(F)F)Nc1ccc(Cl)c(C(=O)Nc2ccc(F)cn2)c1 (stereo not shown) [Compound 39]
≤ 40%: [1]; tested at 10 ppm | [1]; tested at 50 ppm | [1]; tested at 250 ppm | [2]; tested at 10 ppm | [2]; tested at 50 ppm | [2]; tested at 250 ppm

O=C(CC(c1ccc(F)c(Cl)c1)C(F)(F)F)Nc1ccc(Cl)c(C(=O)Nc2cccc(F)c2)c1 (stereo not shown) [Compound 41]
≤ 40%: [1]; tested at 10 ppm | [1]; tested at 50 ppm | [2]; tested at 50 ppm

O=C(CC(c1ccc(F)c(Cl)c1)C(F)(F)F)Nc1ccc(Cl)c(C(=O)Nc2ccccc2F)c1 (stereo not shown) [Compound 42]
≤ 40%: [1]; tested at 50 ppm | [1]; tested at 250 ppm | [2]; tested at 250 ppm

O=C(CC(c1cccc(F)c1)C(F)(F)F)Nc1ccc(Cl)c(C(=O)Nc2ccc(C(F)(F)F)cc2)c1 (stereo not shown) [Compound 43]
≤ 40%: [1]; tested at 250 ppm | [2]; tested at 250 ppm

O=C(CC(c1cc(F)cc(F)c1)C(F)(F)F)Nc1ccc(Cl)c(C(=O)Nc2ccc(C(F)(F)F)cc2)c1 (stereo not shown) [Compound 49]
≤ 40%: [1]; tested at 50 ppm | [1]; tested at 250 ppm | [2]; tested at 250 ppm

O=C(CC(c1cc(F)cc(F)c1)C(F)(F)F)Nc1ccc(Cl)c(C(=O)Nc2ccc(F)cc2)c1 (stereo not shown) [Compound 50]
≤ 40%: [1]; tested at 50 ppm | [1]; tested at 250 ppm | [2]; tested at 250 ppm
